PubChem BioAssay AID1259308, NCATS | 2017

- Aim: 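Candidate targets for better recombinant protein yield in mammalian cells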 (primary screen)
- Cell system: human HEK293 embryonic kidney cells stably expressing firefly luciferase (HEK-CMV-Luc2-Hygro)
- Reagents: single siRNA against human genes, 0.8 pmol siRNA per well
- Timing: 72 h
- Detection: 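Luciferase light (ONE-Glo) measured on one replicate plate set and viability (CellTiter-Glo) on the other, scaled to a negative control siRNA, with robust z-scores and luciferase per cell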
- Reading the numbers: total luciferase, z-score and total luciferase, % of control: higher = more reporter protein produced; luciferase per cell, z-score: higher = more reporter output per viable cell; viable cells, % of control: higher = more viable cells
- Hit rule: 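Active when the median/MAD z-score for overall luciferase is greater than 3; a gene was taken forward for validation with new siRNAs if at least two of its three siRNAs passed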
- Calls: active = raised luciferase; inactive = no rise
The whole screen tested about 59,000 reagents; below is a random part of them. About 1,510 of all reagents (2.6%) were called active. 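Calls use total luciferase alone and ignore viability, so some active siRNAs may act by altering cell number.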 The numbers tell different reagents against one gene apart.

| Gene | reagent | total luciferase, z-score | total luciferase, % of control | luciferase per cell, z-score | viable cells, % of control | Outcome |
| --- | --- | --- | --- | --- | --- | --- |
| ZNF843 | 1 | 0.235 | 86.6 | -0.317 | 105 | inactive |
| ZNF843 | 2 | 2.98 | 141 | 1.47 | 107 | inactive |
| ZNF843 | 3 | -1.53 | 51.5 | -0.941 | 73.7 | inactive |
| CDHR3 | 1 | 0.52 | 92.2 | 0.34 | 94.2 | inactive |
| CDHR3 | 2 | 1.21 | 106 | 1.16 | 87.3 | inactive |
| CDHR3 | 3 | 1.02 | 102 | 2.34 | 61.7 | inactive |
| DDX41 | 1 | 0.154 | 84.9 | 0.0422 | 93.9 | inactive |
| DDX41 | 2 | 2.01 | 122 | 0.795 | 110 | inactive |
| DDX41 | 3 | 0.454 | 90.9 | -0.206 | 107 | inactive |
| DOCK4 | 1 | 0.161 | 85.1 | -0.2 | 100 | inactive |
| DOCK4 | 2 | 0.357 | 89 | -0.0403 | 100 | inactive |
| DOCK4 | 3 | 0.809 | 98 | -0.0407 | 111 | inactive |
| CYP2B6 | 1 | 1.45 | 111 | 1.48 | 83.8 | inactive |
| CYP2B6 | 2 | -0.388 | 74.2 | -0.55 | 95.8 | inactive |
| CYP2B6 | 3 | 5.28 | 187 | 3.94 | 73.9 | active |
| AKR1B1 | 1 | 1.48 | 111 | 1.18 | 91.3 | inactive |
| AKR1B1 | 2 | 0.931 | 100 | 0.795 | 91 | inactive |
| AKR1B1 | 3 | 0.956 | 101 | 2.21 | 62.9 | inactive |
| PDXDC2P-NPIPB14P | 1 | 0.122 | 84.3 | 0.542 | 81.7 | inactive |
| PDXDC2P-NPIPB14P | 2 | 0.473 | 91.3 | 0.456 | 90.5 | inactive |
| PDXDC2P-NPIPB14P | 3 | 0.101 | 83.9 | -0.0382 | 94.7 | inactive |
| PTPN2P1 | 1 | 1.01 | 102 | 0.581 | 97.8 | inactive |
| PTPN2P1 | 2 | -0.396 | 74 | -0.396 | 91.8 | inactive |
| PTPN2P1 | 3 | 0.409 | 90 | 0.351 | 91.7 | inactive |
